# The list shows a part of the results. The list holds hits alone, and they repeat only in part.
# Amino acid sequences for entries named in this document (tags omitted).
# MPG, P29372, UniProt P29372, whole entry: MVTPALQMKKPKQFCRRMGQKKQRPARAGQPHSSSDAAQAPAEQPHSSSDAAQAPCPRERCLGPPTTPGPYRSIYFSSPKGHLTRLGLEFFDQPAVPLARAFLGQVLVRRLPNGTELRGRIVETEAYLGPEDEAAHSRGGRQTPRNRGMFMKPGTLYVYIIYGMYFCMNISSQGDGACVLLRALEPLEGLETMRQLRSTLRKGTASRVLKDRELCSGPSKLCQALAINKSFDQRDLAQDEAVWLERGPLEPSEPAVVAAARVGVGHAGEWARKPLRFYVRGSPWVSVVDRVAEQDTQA
# TF, P02787, UniProt P02787, whole entry: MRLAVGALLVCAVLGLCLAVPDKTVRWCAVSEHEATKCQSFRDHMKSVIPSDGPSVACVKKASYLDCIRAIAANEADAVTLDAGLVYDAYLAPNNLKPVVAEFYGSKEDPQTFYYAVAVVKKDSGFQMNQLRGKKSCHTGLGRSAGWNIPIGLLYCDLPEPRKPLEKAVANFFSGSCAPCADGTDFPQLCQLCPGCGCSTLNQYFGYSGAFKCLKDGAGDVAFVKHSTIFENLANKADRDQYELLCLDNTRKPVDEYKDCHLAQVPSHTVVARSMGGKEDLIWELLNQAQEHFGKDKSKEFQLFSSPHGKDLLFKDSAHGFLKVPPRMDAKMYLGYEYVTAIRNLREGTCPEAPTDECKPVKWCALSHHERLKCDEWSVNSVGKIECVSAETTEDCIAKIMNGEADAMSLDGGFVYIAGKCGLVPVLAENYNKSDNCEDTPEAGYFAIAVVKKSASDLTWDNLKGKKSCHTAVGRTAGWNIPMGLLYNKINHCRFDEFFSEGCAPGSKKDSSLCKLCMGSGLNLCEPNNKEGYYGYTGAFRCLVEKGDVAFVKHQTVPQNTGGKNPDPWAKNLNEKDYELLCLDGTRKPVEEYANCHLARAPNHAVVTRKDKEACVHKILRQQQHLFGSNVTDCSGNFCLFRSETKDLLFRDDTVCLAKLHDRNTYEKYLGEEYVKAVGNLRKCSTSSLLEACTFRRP
# TUBB8, Q3ZCM7, UniProt Q3ZCM7, whole entry: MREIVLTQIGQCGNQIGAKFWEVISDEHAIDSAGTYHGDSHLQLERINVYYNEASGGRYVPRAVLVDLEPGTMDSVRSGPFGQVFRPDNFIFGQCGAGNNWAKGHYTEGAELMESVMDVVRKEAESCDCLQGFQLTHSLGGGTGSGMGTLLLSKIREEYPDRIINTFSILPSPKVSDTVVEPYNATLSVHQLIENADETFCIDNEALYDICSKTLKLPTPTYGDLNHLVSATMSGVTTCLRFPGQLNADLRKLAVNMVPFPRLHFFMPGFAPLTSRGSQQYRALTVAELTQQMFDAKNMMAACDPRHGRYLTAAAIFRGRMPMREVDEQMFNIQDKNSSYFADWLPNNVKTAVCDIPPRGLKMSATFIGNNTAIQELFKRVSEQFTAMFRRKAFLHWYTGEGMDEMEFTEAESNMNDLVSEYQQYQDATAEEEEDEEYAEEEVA
# TRAPPC2L, Q9UL33, UniProt Q9UL33, whole entry: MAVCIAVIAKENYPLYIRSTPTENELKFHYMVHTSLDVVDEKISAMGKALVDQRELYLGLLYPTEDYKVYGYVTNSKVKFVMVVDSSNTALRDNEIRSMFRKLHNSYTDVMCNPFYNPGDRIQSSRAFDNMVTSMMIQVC
# UBA5, Q9GZZ9, UniProt Q9GZZ9, whole entry: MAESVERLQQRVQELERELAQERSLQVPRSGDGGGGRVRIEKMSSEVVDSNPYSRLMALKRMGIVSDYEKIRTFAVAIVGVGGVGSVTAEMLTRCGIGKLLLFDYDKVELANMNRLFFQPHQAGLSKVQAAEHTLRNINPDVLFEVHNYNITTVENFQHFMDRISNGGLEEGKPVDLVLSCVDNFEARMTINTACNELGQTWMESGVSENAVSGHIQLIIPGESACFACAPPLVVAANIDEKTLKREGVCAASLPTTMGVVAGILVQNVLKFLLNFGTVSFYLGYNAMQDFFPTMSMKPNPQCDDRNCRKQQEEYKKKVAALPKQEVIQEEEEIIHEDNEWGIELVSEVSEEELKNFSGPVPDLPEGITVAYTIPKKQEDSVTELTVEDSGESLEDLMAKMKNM
# NDUFA13, Q9P0J0, UniProt Q9P0J0, whole entry: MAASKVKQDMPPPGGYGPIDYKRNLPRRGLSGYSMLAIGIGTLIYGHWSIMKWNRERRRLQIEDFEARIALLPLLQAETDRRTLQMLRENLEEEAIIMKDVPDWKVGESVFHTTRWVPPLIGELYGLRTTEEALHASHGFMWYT
# DNAJB1, P25685, UniProt P25685, whole entry: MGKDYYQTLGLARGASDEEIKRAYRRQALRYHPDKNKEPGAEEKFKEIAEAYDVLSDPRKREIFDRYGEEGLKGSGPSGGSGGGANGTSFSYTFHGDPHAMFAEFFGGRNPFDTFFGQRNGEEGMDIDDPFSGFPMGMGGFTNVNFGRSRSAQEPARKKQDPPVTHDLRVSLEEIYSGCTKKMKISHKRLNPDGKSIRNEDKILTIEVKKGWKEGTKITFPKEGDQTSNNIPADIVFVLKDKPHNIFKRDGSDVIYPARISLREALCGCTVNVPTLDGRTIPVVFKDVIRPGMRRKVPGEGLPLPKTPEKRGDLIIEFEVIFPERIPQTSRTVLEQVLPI
# EIF3D, O15371, UniProt O15371, whole entry: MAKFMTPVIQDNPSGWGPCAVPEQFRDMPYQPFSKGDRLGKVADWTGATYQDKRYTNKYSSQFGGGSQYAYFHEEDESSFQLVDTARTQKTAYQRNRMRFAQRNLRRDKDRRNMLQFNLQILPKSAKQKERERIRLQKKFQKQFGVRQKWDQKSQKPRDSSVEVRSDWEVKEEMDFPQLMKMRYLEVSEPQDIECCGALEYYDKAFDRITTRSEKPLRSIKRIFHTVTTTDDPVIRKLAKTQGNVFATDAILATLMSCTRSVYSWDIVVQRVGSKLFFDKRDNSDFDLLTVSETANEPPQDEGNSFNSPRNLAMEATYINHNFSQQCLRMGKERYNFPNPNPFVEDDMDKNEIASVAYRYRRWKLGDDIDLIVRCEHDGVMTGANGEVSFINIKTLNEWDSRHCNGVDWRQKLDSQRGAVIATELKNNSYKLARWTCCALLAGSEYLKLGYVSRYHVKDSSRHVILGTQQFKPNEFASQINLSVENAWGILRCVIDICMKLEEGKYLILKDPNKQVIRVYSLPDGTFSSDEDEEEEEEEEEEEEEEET
# MORF4L2, Q15014, UniProt Q15014, whole entry: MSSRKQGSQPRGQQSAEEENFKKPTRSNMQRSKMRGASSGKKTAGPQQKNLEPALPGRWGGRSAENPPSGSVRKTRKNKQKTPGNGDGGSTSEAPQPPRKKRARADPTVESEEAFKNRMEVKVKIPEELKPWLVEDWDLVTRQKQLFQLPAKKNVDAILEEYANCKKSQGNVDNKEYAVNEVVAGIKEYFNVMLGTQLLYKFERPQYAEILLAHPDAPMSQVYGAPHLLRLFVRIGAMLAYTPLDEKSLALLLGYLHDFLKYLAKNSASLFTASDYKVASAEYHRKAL
# Legend:
# Assay in all cases: PRISMA enrichment of interactor (LFQ) in peptide spot vs all other peptide spots (log2 fold change); higher = stronger / more specific binding of the interactor to the peptide
# CFAP97, Q9P2B7 = molecular target: CFAP97, Q9P2B7
# Method: (§1)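 PRISMA: 15-aa overlapping tiles (offset 8 aa) of 60 microproteins, plus SOS1/GLUT1 control peptides, were spot-synthesized on cellulose membranes in triplicate. Membranes were incubated with benzonase-treated HEK293T lysate, and bound proteins were identified by LC-MS/MS with LFQ. Enrichment is the log2 fold change of each protein in one spot versus all other spots. Only interactors passing the significance cutoff are listed.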
# COL4A3BP, Q9Y5P4 = molecular target: COL4A3BP, Q9Y5P4
# Method: as §1
# EXOC1, Q9NV70 = molecular target: EXOC1, Q9NV70
# Method: as §1
# MPG, P29372 = molecular target: MPG, P29372
# Method: as §1
# MRPL38, Q96DV4 = molecular target: MRPL38, Q96DV4
# Method: as §1
# NAP1L1, P55209 = molecular target: NAP1L1, P55209
# Method: as §1
# REXO4, Q9GZR2 = molecular target: REXO4, Q9GZR2
# Method: as §1
# SMPD4, Q9NXE4 = molecular target: SMPD4, Q9NXE4
# Method: as §1
# TF, P02787 = molecular target: TF, P02787
# Method: as §1
# TUBB8, Q3ZCM7 = molecular target: TUBB8, Q3ZCM7
# Method: as §1
# CEP290, O15078 = molecular target: CEP290, O15078
# Method: as §1
# CLASP2, O75122 = molecular target: CLASP2, O75122
# Method: as §1
# FLII, Q13045 = molecular target: FLII, Q13045
# Method: as §1
# GPS2, Q13227 = molecular target: GPS2, Q13227
# Method: as §1
# KIF20B, Q96Q89 = molecular target: KIF20B, Q96Q89
# Method: as §1
# MRPL34, Q9BQ48 = molecular target: MRPL34, Q9BQ48
# Method: as §1
# PLEC, Q15149 = molecular target: PLEC, Q15149
# Method: as §1
# PPM1G, O15355 = molecular target: PPM1G, O15355
# Method: as §1
# SAFB, Q15424 = molecular target: SAFB, Q15424
# Method: as §1
# SBNO1, A3KN83 = molecular target: SBNO1, A3KN83
# Method: as §1
# SERF2, P84101 = molecular target: SERF2, P84101
# Method: as §1
# TRAPPC2L, Q9UL33 = molecular target: TRAPPC2L, Q9UL33
# Method: as §1
# UBA5, Q9GZZ9 = molecular target: UBA5, Q9GZZ9
# Method: as §1
# CGGBP1, Q9UFW8 = molecular target: CGGBP1, Q9UFW8
# Method: as §1
# HMGA1, P17096 = molecular target: HMGA1, P17096
# Method: as §1
# MCM6, Q14566 = molecular target: MCM6, Q14566
# Method: as §1
# NDUFA13, Q9P0J0 = molecular target: NDUFA13, Q9P0J0
# Method: as §1
# PSMD7, P51665 = molecular target: PSMD7, P51665
# Method: as §1
# RAB21, Q9UL25 = molecular target: RAB21, Q9UL25
# Method: as §1
# SPCS2, Q15005 = molecular target: SPCS2, Q15005
# Method: as §1
# CHEK1, O14757 = molecular target: CHEK1, O14757
# Method: as §1
# DNAJB1, P25685 = molecular target: DNAJB1, P25685
# Method: as §1
# EIF3D, O15371 = molecular target: EIF3D, O15371
# Method: as §1
# FYTTD1, Q96QD9 = molecular target: FYTTD1, Q96QD9
# Method: as §1
# GLO1, Q04760 = molecular target: GLO1, Q04760
# Method: as §1
# MMS19, Q96T76 = molecular target: MMS19, Q96T76
# Method: as §1
# MORF4L2, Q15014 = molecular target: MORF4L2, Q15014
# Method: as §1
# MRPS2, Q9Y399 = molecular target: MRPS2, Q9Y399
# Method: as §1
# MRPS35, P82673 = molecular target: MRPS35, P82673
# Method: as §1
# NOB1, Q9ULX3 = molecular target: NOB1, Q9ULX3
# Method: as §1
# NXF1, Q9UBU9 = molecular target: NXF1, Q9UBU9
# Method: as §1
# ODF2, Q5BJF6 = molecular target: ODF2, Q5BJF6
# Method: as §1
# PPIL2, Q13356 = molecular target: PPIL2, Q13356
# Method: as §1
# RPP25L, Q8N5L8 = molecular target: RPP25L, Q8N5L8
# Method: as §1
# SAE1, Q9UBE0 = molecular target: SAE1, Q9UBE0
# Method: as §1
# SAP18, O00422 = molecular target: SAP18, O00422
# Method: as §1
# SIRT1, Q96EB6 = molecular target: SIRT1, Q96EB6
# Method: as §1
# SND1, Q7KZF4 = molecular target: SND1, Q7KZF4
# Method: as §1
# TK1, P04183 = molecular target: TK1, P04183
# Method: as §1
# XRN1, Q8IZH2 = molecular target: XRN1, Q8IZH2
# Method: as §1
# YTHDF1, Q9BYJ9 = molecular target: YTHDF1, Q9BYJ9
# Method: as §1
# YWHAZ, P63104 = molecular target: YWHAZ, P63104
# Method: as §1
# hCG_1984214 = molecular target: hCG_1984214
# Method: as §1
binder,measurement,setting,value
RHVLGLGAARRGRQR [RP11-644F5.11],PRISMA enrichment of interactor (log2),"CFAP97, Q9P2B7",7.12
same,PRISMA enrichment of interactor (log2),"COL4A3BP, Q9Y5P4",4.51
same,PRISMA enrichment of interactor (log2),"EXOC1, Q9NV70",5.09
same,PRISMA enrichment of interactor (log2),"MPG, P29372",4.56
same,PRISMA enrichment of interactor (log2),"MRPL38, Q96DV4",5.18
same,PRISMA enrichment of interactor (log2),"NAP1L1, P55209",4.96
same,PRISMA enrichment of interactor (log2),"REXO4, Q9GZR2",6.22
same,PRISMA enrichment of interactor (log2),"SMPD4, Q9NXE4",7.09
same,PRISMA enrichment of interactor (log2),"TF, P02787",6.22
same,PRISMA enrichment of interactor (log2),"TUBB8, Q3ZCM7",5
MADVSERTLQLSVLV [MTLN],PRISMA enrichment of interactor (log2),"CEP290, O15078",6.2
same,PRISMA enrichment of interactor (log2),"CLASP2, O75122",4.46
same,PRISMA enrichment of interactor (log2),"FLII, Q13045",5.49
same,PRISMA enrichment of interactor (log2),"GPS2, Q13227",5.03
same,PRISMA enrichment of interactor (log2),"KIF20B, Q96Q89",6.88
same,PRISMA enrichment of interactor (log2),"MRPL34, Q9BQ48",5.03
same,PRISMA enrichment of interactor (log2),"PLEC, Q15149",6.23
same,PRISMA enrichment of interactor (log2),"PPM1G, O15355",5.05
same,PRISMA enrichment of interactor (log2),"SAFB, Q15424",5.53
same,PRISMA enrichment of interactor (log2),"SBNO1, A3KN83",5.32
same,PRISMA enrichment of interactor (log2),"SERF2, P84101",5.19
same,PRISMA enrichment of interactor (log2),"TRAPPC2L, Q9UL33",4.06
same,PRISMA enrichment of interactor (log2),"UBA5, Q9GZZ9",10.3
LSRNPSGNGRSLFSI [SNHG8_2],PRISMA enrichment of interactor (log2),"CGGBP1, Q9UFW8",4.84
same,PRISMA enrichment of interactor (log2),"HMGA1, P17096",5.15
same,PRISMA enrichment of interactor (log2),"MCM6, Q14566",6.07
same,PRISMA enrichment of interactor (log2),"NDUFA13, Q9P0J0",4.64
same,PRISMA enrichment of interactor (log2),"PSMD7, P51665",4.77
same,PRISMA enrichment of interactor (log2),"RAB21, Q9UL25",5.99
same,PRISMA enrichment of interactor (log2),"SPCS2, Q15005",7.36
MAGTGHPLPRLFTTK [RP11-140K17.3_2],PRISMA enrichment of interactor (log2),"CHEK1, O14757",5.25
same,PRISMA enrichment of interactor (log2),"DNAJB1, P25685",4.65
same,PRISMA enrichment of interactor (log2),"EIF3D, O15371",5.09
same,PRISMA enrichment of interactor (log2),"FYTTD1, Q96QD9",7.39
same,PRISMA enrichment of interactor (log2),"GLO1, Q04760",4.73
same,PRISMA enrichment of interactor (log2),"MMS19, Q96T76",8.27
same,PRISMA enrichment of interactor (log2),"MORF4L2, Q15014",4.93
same,PRISMA enrichment of interactor (log2),"MRPS2, Q9Y399",5.01
same,PRISMA enrichment of interactor (log2),"MRPS35, P82673",4.92
same,PRISMA enrichment of interactor (log2),"NOB1, Q9ULX3",4.71
same,PRISMA enrichment of interactor (log2),"NXF1, Q9UBU9",4.88
same,PRISMA enrichment of interactor (log2),"ODF2, Q5BJF6",7.01
same,PRISMA enrichment of interactor (log2),"PPIL2, Q13356",5.6
same,PRISMA enrichment of interactor (log2),"RPP25L, Q8N5L8",3.9
same,PRISMA enrichment of interactor (log2),"SAE1, Q9UBE0",5.51
same,PRISMA enrichment of interactor (log2),"SAP18, O00422",5.21
same,PRISMA enrichment of interactor (log2),"SIRT1, Q96EB6",6.39
same,PRISMA enrichment of interactor (log2),"SND1, Q7KZF4",5.62
same,PRISMA enrichment of interactor (log2),"TK1, P04183",6.18
same,PRISMA enrichment of interactor (log2),"XRN1, Q8IZH2",5.41
same,PRISMA enrichment of interactor (log2),"YTHDF1, Q9BYJ9",4.57
same,PRISMA enrichment of interactor (log2),"YWHAZ, P63104",5.39
same,PRISMA enrichment of interactor (log2),hCG_1984214,4.61

# Reprinted at random: 2 records from the list.
binder,measurement,setting,value
MADVSERTLQLSVLV [MTLN],PRISMA enrichment of interactor (log2),"SAFB, Q15424",5.53
MAGTGHPLPRLFTTK [RP11-140K17.3_2],PRISMA enrichment of interactor (log2),"CHEK1, O14757",5.25

# From the supplement of paper PMC10032668
